Our source for the conjugation yield and step yield values is patent publication US6132697A (G. D. Searle & Co., priority 1997, dated 2000).

The series in a line: general procedure: solution-phase peptide synthesis; isobutyl chloroformate/N-methylmorpholine; DCC/N-hydroxysuccinimide; thiocarbony. Particulars: for conjugation yield: conjugation step.

Substance “ABAS-L-Asp-L-Lys p-amino-Phe(α-S-THP-mercaptoacetyl)-Gly-dmen Thiourea” displayed a conjugation yield of 10% yield.

Take “N-Boc-L-Asp(β-OtBu)-L-Lys(ε-γ-L-Glu(N-α-S-THP-mercaptoacetyl)-Gly-dmen)-OtBu”: under “coupling step”, the step yield is recorded as 88%.

In turn, “ABAS-L-Asp-L-Lys(ε-AAA(N-α-S-THP-mercaptoacetyl)-Glu(γ- t-Bu)-dmen)” returned a conjugation yield of 46% yield.

On to “ABAS-L-Asp-β-Ala-ε-L-Lys(α-S-THP-mercaptoacetyl)-Glu-dme [ABAS-L-Asp-β-Ala-ε-L-Lys(α-S-THP-mercaptoacetyl)-Glu-dme]”, for which the step yield is 17% yield (coupling step) and 86% yield (late stage modification step).

As for “Asp-L-Lys(ε-γ-L-Glu(N-α-S-THP-mercaptoacetyl)-Gly-dmen)”, the step yield (late stage modification step) is recorded as 34%.

Consider “ABAS-L-Asp-L-Lys(ε-AAA(α-S-THP-mercaptoacetyl)-Glu(γ-t- Bu)-dmen)”, for which, where the note is “late stage modification step”, the step yield was determined as 91%.
